PubChem BioAssay AID1259425 | University of Nebraska Medical Center | 2018

- Aim: 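Seek colon cancer weak points whose silencing resembles KSR1 loss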 (primary screen)
- Cells: HCT116 human colon cancer cells
- Reagents: siRNA pool against human genes, 50 nM siRNA
- Measurement: 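mRNA of six signature genes measured together by branched-DNA assay after 50 nM siRNA pool, blank removed, divided by geometric mean of two housekeeping genes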
- Scale: BNIP3L mRNA: higher = more BNIP3L transcript after knockdown
In all, the deposit lists about 14,000 reagents; below is a random part of them. Not all columns of the deposit are shown. Reagent sequences are not shown. The record does not give: the time to read-out.

BLZF1 | BNIP3L mRNA, set 1 = 0.0972
TMEM123 | BNIP3L mRNA, set 1 = 0.0698
ABAT | BNIP3L mRNA, set 1 = 0.0459
CNOT1 | BNIP3L mRNA, set 1 = 0.108
SLC44A1 | BNIP3L mRNA, set 1 = 0.138
GRID1 | BNIP3L mRNA, set 1 = 0.102
PSMB3 | BNIP3L mRNA, set 1 = 0.298
SHOX | BNIP3L mRNA, set 1 = 0.0845
ORC3 | BNIP3L mRNA, set 1 = 0.0776
IFNA6 | BNIP3L mRNA, set 1 = 0.116
PRR3 | BNIP3L mRNA, set 1 = 0.0993
AIP | BNIP3L mRNA, set 1 = 0.147
ACBD5 | BNIP3L mRNA, set 1 = 0.15
SFTPB | BNIP3L mRNA, set 1 = 0.16
BLM | BNIP3L mRNA, set 1 = 0.0495
RBM28 | BNIP3L mRNA, set 1 = 0.157
CHRNA7 | BNIP3L mRNA, set 1 = 0.29
GSR | BNIP3L mRNA, set 1 = 0.131
CIRSR | BNIP3L mRNA, set 1 = 0.0851
C14orf132 | BNIP3L mRNA, set 1 = 0.13
IL36R | BNIP3L mRNA, set 1 = 0.0583

The list goes on; the last 2 above are carried over.
C14orf132 | BNIP3L mRNA, set 1 = 0.13
IL36R | BNIP3L mRNA, set 1 = 0.0583
RHBDD3 | BNIP3L mRNA, set 1 = 0.214
DDX55 | BNIP3L mRNA, set 1 = 0.204
LSM14A | BNIP3L mRNA, set 1 = 0.23
LHX2 | BNIP3L mRNA, set 1 = 0.0849
ZNF281 | BNIP3L mRNA, set 1 = 0.0536
MTERF2 | BNIP3L mRNA, set 1 = 0.256
KRT13 | BNIP3L mRNA, set 1 = 0.19
ATG4B | BNIP3L mRNA, set 1 = 0.118
DGAT1 | BNIP3L mRNA, set 1 = 0.154
HOXD12 | BNIP3L mRNA, set 1 = 0.0699
IER3IP1 | BNIP3L mRNA, set 1 = 0.173
KRT5 | BNIP3L mRNA, set 1 = 0.0533
ARL6IP5 | BNIP3L mRNA, set 1 = 0.128
ADGRF3 | BNIP3L mRNA, set 1 = 0.112
TSPAN16 | BNIP3L mRNA, set 1 = 0.119
